Source: patent US4442108A, “Hydrogenated isoquinolines and peripheral vascular disease treating compositions thereof” (Laboratoires Sobio S.A. of Immeuble Perisud, priority 1981, dated 1984)
Counter-ions that a name gives are not always drawn. At least one compound was matched to its structure with a doubt left.

Test system: dogs anaesthetized with chloralose
Assay: Cardiovascular activity in anaesthetized dogs
Assay type: in vivo, dog
Conditions: i.v., 1/15 to 1/30 of the mouse i.v. LD50
Procedure: The following parameters were recorded in dogs anaesthetized with chloralose, and under artificial respiration:
left ventricular contractile force.
The compounds tested were injected intravenously in a dose of from (1/15) to (1/30) of the LD50 (i.v.) previoulsy determined in mice.

## CCOc1cc2c(cc1OCC)C(Cc1ccc(OC(C)C)c(OC(C)C)c1)NCC2 (centres unmarked) [Example 11, 6,7-Diethoxy-1-(3',4'-diisopropoxybenzyl)-1,2,3,4-tetrahydroisoquinoline hydrochloride]
  effect on blood pressure (mean aortic pressure): transient hypotension
  effect on left ventricular contractile force: reduction in the amplitude of ventricular contraction
